Record: PubChem BioAssay AID1259329 (Drosophila RNAi Screening Center, 2017)
Purpose: 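Vehicle-only control for knock-down screens on manganese or zinc toxicity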. System: Drosophila S2R+ cells. Reagent: long dsRNA against Drosophila genes. Duration: 5 days (4 days knock-down, then 1 day after water). Treatment: water added as vehicle control, no metal, one day before read-out. Measurement: 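After 4 days of knock-down, water was added with no metal, and total ATP was read by luciferase light a day later on two plate copies, as mean z-score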. Direction: mean ATP z-score: higher = more total ATP, likely more viable cells. Active means: 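a reagent counts as active if its z-score is greater than 1.5 or less than -1.5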.
In all, the deposit lists 418 reagents; below is a part drawn at random. 20 of all reagents (4.8%) were called active. 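All active calls have high ATP; no reagent fell below -1.5.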 Unmarked entries are inactive. Reagent sequences are not shown. Not given: the amount of reagent, the dose of the treatment.

target | dsRNA | mean ATP z-score
CG31928 | DRSC00293 | 0.0371
Agxt | DRSC18718 | -0.498
Agxt | DRSC26115 | -0.947
CG15117 | DRSC06539 | 0.477
CG15117 | DRSC25471 | -0.457
CG15117 | DRSC34105 | -0.313
gb | DRSC15961 | 0.144
gb | DRSC24834 | -0.418
Xpd | DRSC27757 | 0.872
Xpd | DRSC36088 | 1.37
Xpd | DRSC41045 | -0.353
Muc11A | DRSC29295 | 1.11
Vha68-3 | DRSC02809 | 0.767
Vha68-3 | DRSC25742 | -0.6
g | DRSC20335 | -0.498
g | DRSC26118 | 0.0527
Sap-r | DRSC21916 | -0.299
Sap-r | DRSC27246 | 0.534
JhI-21 | DRSC02161 | 0.792
JhI-21 | DRSC29181 | -0.063
Vps25 | DRSC06486 | 0.726
Vps25 | DRSC31962 | -0.96
Vps25 | DRSC31963 | -0.914
Dhrs4 | DRSC09773 | -0.752
Gbp2 | DRSC06069 | 1.1
Ctns | DRSC15175 | 0.89
Ctns | DRSC33258 | -0.71
Ctns | DRSC39640 | 0.314
CG3961 | DRSC10390 | 1.7 (active)
CG3961 | DRSC10391 | 1.38
CG3961 | DRSC35309 | 0.573
VhaAC45 | DRSC07058 | 0.673
VhaAC45 | DRSC32085 | 0.158
VhaAC45 | DRSC39906 | 0.931
Vps16A | DRSC16422 | 0.246
Vps16A | DRSC36082 | -0.701
CG1607 | DRSC15130 | -0.68
CG1607 | DRSC27010 | -1.49
CtsF | DRSC12056 | -1.12
CtsF | DRSC12195 | 1.04
CtsF | DRSC12196 | 0.091
Agps | DRSC05984 | -0.651
Agps | DRSC26742 | 1.52 (active)
Agps | DRSC41165 | -0.891
VhaM9.7-c | DRSC08204 | -0.64
VhaM9.7-c | DRSC30083 | 1.59 (active)

Already shown: entries from further up.
target | dsRNA | mean ATP z-score
CG15117 | DRSC06539 | 0.477
CG15117 | DRSC25471 | -0.457
CG15117 | DRSC34105 | -0.313
gb | DRSC15961 | 0.144
gb | DRSC24834 | -0.418
Xpd | DRSC27757 | 0.872
Xpd | DRSC36088 | 1.37
Xpd | DRSC41045 | -0.353
Muc11A | DRSC29295 | 1.11
Vha68-3 | DRSC02809 | 0.767
Vha68-3 | DRSC25742 | -0.6
g | DRSC20335 | -0.498

The list goes on:
target | dsRNA | mean ATP z-score
CG10474 | DRSC05993 | 0.479
Wdr24 | DRSC14151 | -0.0365
Wdr24 | DRSC36452 | -1.07
Abcd3 | DRSC29341 | -0.121
Abcd3 | DRSC41060 | -0.786
Abcd3 | DRSC41168 | -1.47
Ctr1A | DRSC18336 | 0.373
Ctr1A | DRSC40310 | 1.09
Ctr1A | DRSC40902 | -0.00957
Pex10 | DRSC22021 | 0.269
Pex10 | DRSC38320 | 0.417
CG3376 | DRSC04362 | 0.264
CG3376 | DRSC26489 | 1.87 (active)
Pex13 | DRSC06877 | 1.06
Pex13 | DRSC40208 | 0.871
Pex13 | DRSC40344 | 0.314
Parp1 | DRSC07725 | 0.565
Parp1 | DRSC07778 | 0.832
Parp1 | DRSC07780 | -1.11
Vha13 | DRSC16895 | -1.37
Hmgcl | DRSC02051 | -0.678
Abcd1 | DRSC17157 | 1.92 (active)
Abcd1 | DRSC39677 | -0.506
Dci | DRSC08360 | -0.0939
Dci | DRSC28929 | -1.13
Gal | DRSC03134 | 0.162
Gal | DRSC24562 | 1.05
Mvl | DRSC16752 | 0.198
Mvl | DRSC39671 | 0.53
Mvl | DRSC40923 | 0.274
